# Test: Acute toxicity (LD50), technique of Karber and Behrens
# Settings: mouse, in vivo, ip
# Experimental: The LD50 was determined on the mouse by intraperitonel route using the technique of KARBER and BEHRENS.
structure (smiles),measurement,value
"CN1C(=O)CN=C(c2ccccc2)c2cc(Cl)ccc21 [diazepam, reference compound]",LD50,55 mg/kg
